PubChem BioAssay AID652243 – Drosophila RNAi Screening Center – 2013
The deposit covers about 24,000 reagents; below is an unselected part of those that have a named target and a result. In the full data, 246 (1%) were called active. 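Plates not normalised; calls are printed but the firefly/Renilla ratio behind them is not deposited; fold cut for lowering reported inconsistently.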 The raw values are shown without normalisation. Names joined by + are all predicted targets of the reagent. Not given: the amount of reagent.

Test: 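Fly regulators of androgen-dependent reporter output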 (primary screen)
System: Drosophila S2R+ cells
Reagent: long dsRNA against Drosophila genes
Time to read-out: 72 h (48 h, then 24 h hormone)
Treatment: synthetic androgen R1881 at 10 nM for 24 h
Measurement: 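Per-well raw luminescence of the androgen-driven firefly reporter and of the Renilla control, two replicates each, without normalisation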
Scale: firefly reporter light: higher = more light from androgen-responsive reporter; Renilla control light: higher = more constitutive control signal (cell number, transfection)
Call rule: 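Hit when the log firefly-to-Renilla ratio dropped or increased by a fixed fold versus the mean of GFP or LacZ controls across duplicate plates; lowering cut given as 1.5 and as 3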
Calls: active = hit: reporter lowered or raised; inactive = no hit

Muc68E [DRSC09146]: firefly reporter light, replicate 1 = 4.18e5; firefly reporter light, replicate 2 = 6.28e5; Renilla control light, replicate 1 = 1.57e6; Renilla control light, replicate 2 = 2.19e6; Call = inactive
Muc68E [DRSC26478]: firefly reporter light, replicate 1 = 2.35e5; firefly reporter light, replicate 2 = 3.44e5; Renilla control light, replicate 1 = 5.43e5; Renilla control light, replicate 2 = 5.24e5; Call = inactive
fray [DRSC16950]: firefly reporter light, replicate 1 = 1.08e5; firefly reporter light, replicate 2 = 1.37e5; Renilla control light, replicate 1 = 1.54e6; Renilla control light, replicate 2 = 1.36e6; Call = inactive
fray [DRSC36742]: Call = inactive
fray [DRSC36743]: Call = inactive
CG6000 [DRSC15938]: firefly reporter light, replicate 1 = 1.36e5; firefly reporter light, replicate 2 = 1.93e5; Renilla control light, replicate 1 = 2.05e6; Renilla control light, replicate 2 = 2.62e6; Call = inactive
CG31468 [DRSC13637]: firefly reporter light, replicate 1 = 63347; firefly reporter light, replicate 2 = 56943; Renilla control light, replicate 1 = 52546; Renilla control light, replicate 2 = 1.06e5; Call = inactive
CG16741 [DRSC06622]: firefly reporter light, replicate 1 = 1.27e5; firefly reporter light, replicate 2 = 1.03e5; Renilla control light, replicate 1 = 2.10e6; Renilla control light, replicate 2 = 1.55e6; Call = inactive
CG16741 [DRSC24117]: firefly reporter light, replicate 1 = 5.68e5; firefly reporter light, replicate 2 = 7.21e5; Renilla control light, replicate 1 = 6.41e5; Renilla control light, replicate 2 = 7.61e5; Call = inactive
CG14237 [DRSC23239]: firefly reporter light, replicate 1 = 5.80e5; firefly reporter light, replicate 2 = 6.60e5; Renilla control light, replicate 1 = 1.57e6; Renilla control light, replicate 2 = 1.42e6; Call = inactive
CG4949 [DRSC19926]: firefly reporter light, replicate 1 = 1.36e5; firefly reporter light, replicate 2 = 1.35e5; Renilla control light, replicate 1 = 6.51e5; Renilla control light, replicate 2 = 6.67e5; Call = inactive
PIG-U [DRSC02193]: firefly reporter light, replicate 1 = 5.02e5; firefly reporter light, replicate 2 = 7.76e5; Renilla control light, replicate 1 = 1.21e6; Renilla control light, replicate 2 = 1.35e6; Call = inactive
PIG-U [DRSC28900]: firefly reporter light, replicate 1 = 2.50e5; firefly reporter light, replicate 2 = 2.67e5; Renilla control light, replicate 1 = 9.75e5; Renilla control light, replicate 2 = 8.31e5; Call = inactive
CG33286 [DRSC11691]: firefly reporter light, replicate 1 = 3.33e5; firefly reporter light, replicate 2 = 2.97e5; Renilla control light, replicate 1 = 2.72e6; Renilla control light, replicate 2 = 3.09e6; Call = inactive
CG33286 [DRSC26119]: firefly reporter light, replicate 1 = 2.13e5; firefly reporter light, replicate 2 = 2.11e5; Renilla control light, replicate 1 = 5.18e5; Renilla control light, replicate 2 = 4.50e5; Call = inactive
ms(3)76Ba [DRSC10091]: firefly reporter light, replicate 1 = 2.52e5; firefly reporter light, replicate 2 = 1.31e5; Renilla control light, replicate 1 = 2.48e6; Renilla control light, replicate 2 = 1.41e6; Call = inactive
Rdl [DRSC11264]: firefly reporter light, replicate 1 = 1.06e6; firefly reporter light, replicate 2 = 5.91e5; Renilla control light, replicate 1 = 1.68e6; Renilla control light, replicate 2 = 9.78e5; Call = inactive
Rdl [DRSC27696]: firefly reporter light, replicate 1 = 1.32e5; firefly reporter light, replicate 2 = 1.21e5; Renilla control light, replicate 1 = 4.50e5; Renilla control light, replicate 2 = 5.32e5; Call = inactive
LanB1 [DRSC03360]: firefly reporter light, replicate 1 = 6.04e5; firefly reporter light, replicate 2 = 7.43e5; Renilla control light, replicate 1 = 1.34e6; Renilla control light, replicate 2 = 1.67e6; Call = inactive
LanB1 [DRSC27259]: firefly reporter light, replicate 1 = 5.22e5; firefly reporter light, replicate 2 = 3.21e5; Renilla control light, replicate 1 = 5.65e5; Renilla control light, replicate 2 = 4.48e5; Call = inactive
orb2 + CG43783 [DRSC10540]: firefly reporter light, replicate 1 = 6.28e5; firefly reporter light, replicate 2 = 5.40e5; Renilla control light, replicate 1 = 1.15e6; Renilla control light, replicate 2 = 1.21e6; Call = inactive
orb2 + CG43783 [DRSC10541]: firefly reporter light, replicate 1 = 1.70e5; firefly reporter light, replicate 2 = 1.81e5; Renilla control light, replicate 1 = 2.10e6; Renilla control light, replicate 2 = 1.59e6; Call = inactive
orb2 + CG43783 [DRSC10542]: firefly reporter light, replicate 1 = 6.03e5; firefly reporter light, replicate 2 = 7.94e5; Renilla control light, replicate 1 = 9.82e5; Renilla control light, replicate 2 = 2.08e6; Call = inactive
orb2 + CG43783 [DRSC25697]: firefly reporter light, replicate 1 = 7.54e5; firefly reporter light, replicate 2 = 8.33e5; Renilla control light, replicate 1 = 7.43e5; Renilla control light, replicate 2 = 8.34e5; Call = inactive

Quoted from the entries so far for reference:
CG16741 [DRSC24117]: firefly reporter light, replicate 1 = 5.68e5; firefly reporter light, replicate 2 = 7.21e5; Renilla control light, replicate 1 = 6.41e5; Renilla control light, replicate 2 = 7.61e5; Call = inactive
CG14237 [DRSC23239]: firefly reporter light, replicate 1 = 5.80e5; firefly reporter light, replicate 2 = 6.60e5; Renilla control light, replicate 1 = 1.57e6; Renilla control light, replicate 2 = 1.42e6; Call = inactive
CG4949 [DRSC19926]: firefly reporter light, replicate 1 = 1.36e5; firefly reporter light, replicate 2 = 1.35e5; Renilla control light, replicate 1 = 6.51e5; Renilla control light, replicate 2 = 6.67e5; Call = inactive
